According to PubChem BioAssay:
Some of the results follow. Further columns of the screen follow, without active or inactive calls. For part of these data: Most of these compounds were active or inconclusive in the main read-out, so they are no random draw.

Protein sequences, listed by entry. Tags and fused reporters are not part of them.
UniProt P42858, whole entry, looked up: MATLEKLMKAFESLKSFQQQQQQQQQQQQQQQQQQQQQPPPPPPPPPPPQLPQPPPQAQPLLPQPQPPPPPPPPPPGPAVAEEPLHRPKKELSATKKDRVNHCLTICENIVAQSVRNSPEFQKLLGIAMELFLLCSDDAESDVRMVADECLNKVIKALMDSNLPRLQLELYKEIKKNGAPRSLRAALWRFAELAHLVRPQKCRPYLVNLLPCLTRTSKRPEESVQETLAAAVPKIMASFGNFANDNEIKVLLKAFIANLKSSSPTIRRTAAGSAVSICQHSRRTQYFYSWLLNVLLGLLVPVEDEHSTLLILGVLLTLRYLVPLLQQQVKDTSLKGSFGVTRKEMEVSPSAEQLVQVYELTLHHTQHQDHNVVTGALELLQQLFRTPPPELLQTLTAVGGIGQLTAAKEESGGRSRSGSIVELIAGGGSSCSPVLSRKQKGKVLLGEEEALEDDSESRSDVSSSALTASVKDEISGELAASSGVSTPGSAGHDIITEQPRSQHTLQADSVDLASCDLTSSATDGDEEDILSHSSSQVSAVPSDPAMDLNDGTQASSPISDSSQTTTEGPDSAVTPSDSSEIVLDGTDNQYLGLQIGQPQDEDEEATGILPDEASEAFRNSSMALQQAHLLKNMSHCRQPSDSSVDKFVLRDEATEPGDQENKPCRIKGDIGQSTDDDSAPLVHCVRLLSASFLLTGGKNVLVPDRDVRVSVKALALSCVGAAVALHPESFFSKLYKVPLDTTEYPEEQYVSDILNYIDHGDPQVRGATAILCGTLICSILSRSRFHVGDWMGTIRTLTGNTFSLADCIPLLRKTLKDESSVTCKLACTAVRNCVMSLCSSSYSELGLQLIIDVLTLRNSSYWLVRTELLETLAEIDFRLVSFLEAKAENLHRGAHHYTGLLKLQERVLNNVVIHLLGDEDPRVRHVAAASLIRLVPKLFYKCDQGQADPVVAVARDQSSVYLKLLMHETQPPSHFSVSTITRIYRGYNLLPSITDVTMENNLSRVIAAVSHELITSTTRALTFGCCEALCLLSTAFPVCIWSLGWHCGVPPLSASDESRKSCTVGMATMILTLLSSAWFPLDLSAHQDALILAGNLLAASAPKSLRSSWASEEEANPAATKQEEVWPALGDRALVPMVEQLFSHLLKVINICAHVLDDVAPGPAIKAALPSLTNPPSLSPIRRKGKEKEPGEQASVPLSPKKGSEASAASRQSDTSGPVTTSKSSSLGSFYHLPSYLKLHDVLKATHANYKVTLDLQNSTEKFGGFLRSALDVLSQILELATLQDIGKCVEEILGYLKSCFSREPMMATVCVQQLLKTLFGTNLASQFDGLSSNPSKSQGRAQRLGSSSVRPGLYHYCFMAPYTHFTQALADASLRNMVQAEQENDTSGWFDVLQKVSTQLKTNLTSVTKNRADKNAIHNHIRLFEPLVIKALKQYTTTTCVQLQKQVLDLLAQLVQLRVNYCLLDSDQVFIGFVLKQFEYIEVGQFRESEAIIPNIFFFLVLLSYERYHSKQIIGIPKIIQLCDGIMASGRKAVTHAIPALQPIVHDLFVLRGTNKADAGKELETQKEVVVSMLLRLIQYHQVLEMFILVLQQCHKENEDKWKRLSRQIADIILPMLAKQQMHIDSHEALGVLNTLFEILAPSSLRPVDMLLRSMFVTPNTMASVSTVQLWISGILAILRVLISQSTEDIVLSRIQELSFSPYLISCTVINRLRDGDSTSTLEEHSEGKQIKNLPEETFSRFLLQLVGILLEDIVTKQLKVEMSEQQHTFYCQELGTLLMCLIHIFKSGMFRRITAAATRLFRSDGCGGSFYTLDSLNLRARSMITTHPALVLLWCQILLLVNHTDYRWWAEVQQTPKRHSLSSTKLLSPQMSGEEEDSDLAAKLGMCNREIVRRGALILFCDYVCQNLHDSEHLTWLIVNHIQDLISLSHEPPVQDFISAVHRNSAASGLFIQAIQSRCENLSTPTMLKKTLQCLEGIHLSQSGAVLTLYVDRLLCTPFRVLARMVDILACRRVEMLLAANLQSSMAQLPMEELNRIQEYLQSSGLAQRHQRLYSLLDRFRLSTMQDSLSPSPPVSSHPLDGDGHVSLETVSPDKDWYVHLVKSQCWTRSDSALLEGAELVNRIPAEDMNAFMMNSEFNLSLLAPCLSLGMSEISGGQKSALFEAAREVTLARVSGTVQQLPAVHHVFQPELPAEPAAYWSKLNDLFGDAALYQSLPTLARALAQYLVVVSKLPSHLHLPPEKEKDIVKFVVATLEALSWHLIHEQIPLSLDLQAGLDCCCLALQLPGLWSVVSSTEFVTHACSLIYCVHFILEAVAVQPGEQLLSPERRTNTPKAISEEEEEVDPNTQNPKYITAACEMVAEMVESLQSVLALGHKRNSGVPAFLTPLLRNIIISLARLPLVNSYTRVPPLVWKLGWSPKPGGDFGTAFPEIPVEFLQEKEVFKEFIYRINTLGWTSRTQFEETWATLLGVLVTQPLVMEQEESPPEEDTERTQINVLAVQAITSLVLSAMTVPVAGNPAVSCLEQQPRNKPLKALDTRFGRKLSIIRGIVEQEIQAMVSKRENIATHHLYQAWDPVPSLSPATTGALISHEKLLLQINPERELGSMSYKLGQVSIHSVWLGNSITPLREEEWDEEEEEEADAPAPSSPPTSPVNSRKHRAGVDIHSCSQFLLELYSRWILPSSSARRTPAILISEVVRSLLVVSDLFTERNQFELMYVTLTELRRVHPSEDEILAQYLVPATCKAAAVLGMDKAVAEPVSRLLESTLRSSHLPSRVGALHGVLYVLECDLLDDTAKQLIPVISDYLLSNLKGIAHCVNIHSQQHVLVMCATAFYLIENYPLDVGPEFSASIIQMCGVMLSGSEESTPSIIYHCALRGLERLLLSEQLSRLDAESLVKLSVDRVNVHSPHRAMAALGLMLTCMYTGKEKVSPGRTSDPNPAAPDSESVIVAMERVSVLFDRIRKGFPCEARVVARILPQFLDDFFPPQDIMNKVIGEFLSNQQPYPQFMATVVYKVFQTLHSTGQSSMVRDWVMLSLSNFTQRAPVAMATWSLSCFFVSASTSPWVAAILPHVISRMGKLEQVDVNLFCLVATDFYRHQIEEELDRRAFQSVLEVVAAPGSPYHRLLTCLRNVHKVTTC

Experiments:
[1] = biological target: Huntingtin (Homo sapiens) (UniProt P42858); test: mutant huntingtin aggregation blockers – QA1, dose response (AID 1584); conditions: in vitro mutant huntingtin aggregation assay; confirmation test; at 10 µM; stronger effect = lower value
[2] = PubChem AID 1586; conditions: yeast two-hybrid polyglutamine protein interaction, reporter readout; measured here: averaged growth delta OD
[3] = selective SMN2 exon splicing luciferase activators – cell-based, SMN2/SMN1 luciferase reporters (AID 1598); conditions: SMN2 vs SMN1 luciferase splicing reporter cells, at 10 µM; SMN1 luciferase ratio: measured here: SMN1 luciferase reporter average; SMN2 luciferase ratio: measured here: SMN2 luciferase reporter average, stronger effect = higher value
[4] = rescue of PC12 cells from polyQ htt toxicity – LDH release (AID 1610); conditions: PC12 mutant huntingtin toxicity, final LDH at 4 uM, stronger effect = lower value

Row | SMILES | aggregation ratio [1] | signal change (36 h minus 0 h) [2] | SMN1 luciferase ratio [3] | SMN2 luciferase ratio [3] | normalised LDH release [4]
1 | Cc1cc2cc3c(C)cc(=O)oc3c(C)c2o1 | 1.04 | 0.208 | 0.93 | 1.07 | 0.458
2 | C=C1CC[C@H](O)C/C1=C/C=C1\CCC[C@]2(C)C([C@H](C)/C=C/[C@H](C)C(C)C)CC[C@@H]12 (stereo partly specified) | 0.704 | 0.101 | 0.86 | 0.89 | 0.85
3 | CCC1(c2ccccc2)NC(=O)N(C)C1=O (stereo unspecified) | 1.07 | 0.105 | 0.94 | 0.96 | 0.971
4 | CCC(c1ccc(O)cc1)C(CC)c1ccc(O)cc1 (stereo unspecified) | 0.998 | 0.155 | 0.98 | 0.79 | 0.439
5 | CC(=O)O[C@@H]1CC2C(C)(C)C(=O)C=C[C@]2(C)C2CC[C@@]3(C)[C@H](c4ccoc4)OC(=O)[C@H]4O[C@]43[C@@]21C (stereo partly specified) | 0.994 | 0.342 | 1.06 | 1.04 | 0.856
6 | C=C1c2cccc(O)c2C(O)=C2C(=O)[C@]3(O)C(O)=C(C(N)=O)C(=O)[C@@H](N(C)C)[C@@H]3[C@@H](O)[C@H]12 | 0.988 | 0.159 | 0.84 | 0.93 | 0.964
7 | CCCN1C[C@H](CSC)C[C@@H]2c3cccc4[nH]cc(c34)C[C@H]21 | 0.97 | 0.188 | 0.93 | 0.97 | 0.543
8 | CC(C)(C)CC(C)(C)c1ccc(O)c(Cc2ccc(Cl)cc2Cl)c1 | 0.984 | 0.239 | 0.9 | 0.87 | 1.07
9 | NC[C@H](O)c1ccc(O)c(O)c1 | 0.874 | 0.0376 | 0.96 | 0.93 | 0.426
10 | CN(C)[C@@H]1C(=O)C(C(N)=O)=C(O)[C@@]2(O)C(=O)C3=C(O)c4c(O)ccc(Cl)c4[C@@H](O)[C@H]3C[C@@H]12 | 0.979 | 0.417 | 0.9 | 0.93 | 0.72
11 | CC(=O)OC/C=C(C)/C=C/C=C(C)/C=C/C1=C(C)CCCC1(C)C | 0.985 | 0.0583 | 0.93 | 0.81 | 0.283
12 | O=c1c(O)cc2c(O)oc3c(=O)c(O)cc4c3c2c1CC=4O | 0.836 | 0.0442 | 0.91 | 0.85 | 1.04
13 | O=C1C=CC(=C(c2ccc(O)cc2)c2ccc(O)cc2)C=C1 | 1.06 | 0.0929 | 0.94 | 0.99 | –
14 | CC1OC1P(=O)(O)O (stereo unspecified) | 1.06 | 0.0864 | 1.01 | 0.95 | 1.03
15 | O=c1c(O)c(-c2ccc(O)c(O)c2)oc2cc(O)cc(O)c12 | 0.688 | 0.138 | 0.98 | 0.86 | 1.02
16 | CCCCN(CCCC)CCCOC(=O)c1ccc(N)cc1 | 1.05 | 0.172 | 0.83 | 0.86 | 0.749
17 | N[C@@H](Cc1ccc(O)c(O)c1)C(=O)O | 0.999 | 0.207 | 0.8 | 0.86 | 0.648
18 | CC(Cc1ccc(O)c(O)c1)C(C)Cc1ccc(O)c(O)c1 (stereo unspecified) | 0.981 | 0.235 | 0.98 | 0.96 | –
19 | NC(=O)c1cc[n+](CC2=C(C(=O)O)N3C(=O)C(NC(=O)C(c4ccccc4)S(=O)(=O)[O-])C3SC2)cc1 (stereo unspecified) | 1.01 | 0.2 | 0.96 | 0.85 | 1.1
20 | CC(=O)N[C@@H](CS)C(=O)O | 1.02 | 0.193 | 0.84 | 0.88 | 0.875
21 | Oc1c(I)cc(I)c2cccnc12 | 1.03 | -0.0164 | 0.88 | 0.75 | 1.17
22 | COc1cccc(OC)c1C(=O)N[C@@H]1C(=O)N2[C@@H]1SC(C)(C)[C@@H]2C(=O)O | 1.06 | 0.18 | 0.91 | 0.91 | 0.625
23 | CC1=C(/C=C/C(C)=C/C=C/C(C)=C/C=C/C=C(C)/C=C/C=C(C)/C=C/C2=C(C)CCCC2(C)C)C(C)(C)CCC1 | 0.737 | 0.0486 | 0.89 | 0.88 | 0.826

Row | SMILES | aggregation ratio [1] | signal change (36 h minus 0 h) [2] | SMN1 luciferase ratio [3] | SMN2 luciferase ratio [3] | normalised LDH release [4]
24 | Cc1cc(N)c2ccccc2[n+]1CCCCCCCCCC[n+]1c(C)cc(N)c2ccccc21 | 1.03 | 0.0966 | 0.35 | 0.57 | 0.996
25 | OCCS | 1.01 | 0.222 | 0.91 | 0.94 | 1.02
26 | O=C1c2ccc(O)c(O)c2C(=O)c2c(O)ccc(O)c21 | 0.693 | 0.0257 | 0.57 | 0.9 | 0.765
27 | CC1=C(/C=C/C(C)=C/C=C/C(C)=C/C(=O)O)C(C)(C)CCC1 | 0.972 | 0.158 | 0.8 | 0.87 | 0.658
28 | CCCCC1(COC(=O)CCC(=O)O)C(=O)N(c2ccccc2)N(c2ccccc2)C1=O | 1.1 | 0.177 | 0.82 | 0.85 | 0.847
29 | CN1CCc2cccc3c2C1Cc1ccc(O)c(O)c1-3 (stereo unspecified) | 1.05 | 0.176 | 0.93 | 0.92 | –
30 | CC[C@@H](C(=O)C(C)[C@@H](O)[C@H](C)CCc1ccc(C)c(O)c1C(=O)O)C1OC(CC)(C2CC[C@](O)(CC)[C@H](C)O2)C[C@@H]1C (stereo partly specified) | 0.969 | 0.162 | 0.51 | 0.53 | 1.53
31 | C[C@H](CS)C(=O)N1CCC[C@H]1C(=O)O | 1.07 | 0.168 | 0.87 | 0.93 | 0.889
32 | C[C@](N)(Cc1ccc(O)c(O)c1)C(=O)O | 1.07 | 0.0599 | 0.87 | 0.96 | 0.878
33 | Oc1c(Cl)cc(Cl)c(Cl)c1Cc1c(O)c(Cl)cc(Cl)c1Cl | 0.98 | 0.00345 | 0.46 | 0.44 | –
34 | OCc1ccccc1O[C@@H]1O[C@H](CO)[C@@H](O)[C@H](O)[C@H]1O | 1.01 | 0.0502 | 0.9 | 0.87 | 1.08
35 | Oc1ccc(Cl)cc1Cc1cc(Cl)ccc1O | 0.892 | 0.164 | 0.92 | 0.89 | 0.891
36 | CN(C)c1ccc(O)c2c1C[C@H]1C[C@H]3[C@H](N(C)C)C(=O)C(C(N)=O)=C(O)[C@@]3(O)C(=O)C1=C2O | 1.04 | 0.214 | 0.86 | 0.77 | 0.112
37 | NCC1CCC(C(=O)O)CC1 (stereo unspecified) | 0.984 | 0.0291 | 0.89 | 0.84 | 1.06
38 | CC(C)=CCc1c2c(c3occ(-c4ccc(O)c(O)c4)c(=O)c3c1O)C=CC(C)(C)O2 | 0.995 | 0.366 | 0.94 | 0.99 | 1.12
39 | CN1CCN2c3ccccc3Cc3ccccc3C2C1 (stereo unspecified) | 1.03 | 0.408 | 0.86 | 0.78 | 0.921
40 | CC(=O)c1c(O)c(C)c(O)c2c1OC1=CC(=O)C(C(C)=O)C(=O)C12C (stereo unspecified) | – | 0.289 | 0.81 | 0.76 | –
41 | CC[C@@]1(O)C[C@H](OC2CC(N(C)C)C(OC3CC(O)C(OC4CCC(=O)C(C)O4)C(C)O3)C(C)O2)c2c(cc3c(c2O)C(=O)c2c(O)cccc2C3=O)[C@H]1C(=O)OC (stereo partly specified) | – | 0.034 | – | – | –
42 | Nc1c(Br)cc(Br)cc1CNC1CCC(O)CC1 (stereo unspecified) | – | 0.0864 | 0.82 | 0.87 | –
43 | CC(C)CC1C(=O)N2CCC[C@H]2C2(O)O[C@](NC(=O)C3C=C4c5cccc6[nH]c(Br)c(c56)C[C@H]4N(C)C3)(C(C)C)C(=O)N12 (stereo partly specified) | – | 0.0967 | 0.95 | 0.98 | –
44 | COc1ccc(CCN(C)CCCC(C#N)(c2ccc(OC)c(OC)c2)C(C)C)cc1OC (stereo unspecified) | – | 0.0419 | 0.91 | 0.82 | –
45 | CC(C)(C)c1ccc(C(O)CCCN2CCC(C(O)(c3ccccc3)c3ccccc3)CC2)cc1 (stereo unspecified) | – | 0.603 | 0.93 | 0.84 | –
46 | OCCN1CCN(CCCN2c3ccccc3Sc3ccc(Cl)cc32)CC1 | – | 0.0651 | 0.94 | 0.97 | –

Row | SMILES | aggregation ratio [1] | signal change (36 h minus 0 h) [2] | SMN1 luciferase ratio [3] | SMN2 luciferase ratio [3] | normalised LDH release [4]
47 | CCN(CC)CCNc1ccc(CO)c2sc3ccccc3c(=O)c12 | – | 0.0956 | 0.59 | 0.64 | –
48 | COc1cc2ccc(=O)oc2cc1O | – | 0.0577 | 0.9 | 0.97 | –
49 | CC(NC(=O)C(NC(=O)OCc1ccccc1)C(C)C)C(=O)NC(CC(=O)O)C(=O)OC(F)F (stereo unspecified) | – | 0.0491 | 0.94 | 0.8 | –
50 | NC(=NCc1ccccc1)NC(=O)c1nc(Cl)c(N)nc1N | – | 0.577 | 0.99 | 1.11 | –
51 | CCCCCCCCCCCCCCCCCC(=O)OC(CC(=O)O)C[N+](C)(C)C (stereo unspecified) | – | 0.377 | 0.82 | 0.87 | –
52 | CC(C)=CCC1=C(O)c2ccccc2C(=O)C1=O | – | 0.0411 | 0.77 | 0.74 | –
53 | O=C(c1ccccc1)c1ccc2n1CCC2C(=O)O (stereo unspecified) | – | 0.0568 | 0.59 | 0.7 | –
54 | Cc1cc(C2CCCCC2)n(O)c(=O)c1 | – | 0.0068 | 0.24 | 0.28 | –
55 | CN[C@@H]1[C@H](OC2[C@H](O[C@H]3[C@H](O)[C@@H](O)[C@H](N=C(N)N)[C@@H](O)[C@@H]3N=C(N)N)O[C@@H](C)[C@]2(O)C=O)O[C@@H](CO)[C@H](O)[C@H]1O (stereo partly specified) | – | 0.187 | 0.82 | 0.84 | –
56 | CN1CCc2c(c3ccccc3n2Cc2ccccc2)C1 | – | 0.0872 | 0.85 | 1 | –
57 | C=C1C(=O)OC2C1CCC1(C)CCC=C(C)C21 (stereo unspecified) | – | 0.171 | 0.96 | 0.96 | –
58 | CCCCC(=O)OC1(C(=O)CO)C(C)CC2C3CCC4=CC(=O)C=CC4(C)[C@@]3(F)[C@@H](O)CC21C (stereo partly specified) | – | -0.102 | 0.95 | 1.07 | –
59 | CC(C)(C)CC(C)(C)c1ccc(OCCOCC[N+](C)(C)Cc2ccccc2)cc1 | – | 0.0293 | 0.33 | 0.41 | –
60 | C[N+](C)(C)CCOC(N)=O | – | 0.0988 | 1 | 0.93 | –
61 | CC(NCCC(c1ccccc1)c1ccccc1)c1ccccc1 (stereo unspecified) | – | 0.195 | 0.83 | 0.74 | –
62 | CN(C)CCOC(c1ccc(Cl)cc1)c1ccccn1 (stereo unspecified) | – | 0.104 | 0.9 | 1.14 | –
63 | CC(=O)Nc1ccc(S(=O)(=O)Nc2ccc([N+](=O)[O-])cc2)cc1 | – | 0.118 | 0.89 | 0.78 | –
64 | C[C@H]1c2cccc(O)c2C(O)=C2C(=O)[C@]3(O)C(O)=C(C(N)=O)C(=O)[C@@H](N(C)C)[C@@H]3[C@@H](O)[C@@H]21 | – | 0.134 | 0.88 | 0.88 | –
65 | CCCCC[C@H](CC(=O)NO)C(=O)N[C@H](C(=O)N1CCC[C@H]1CO)C(C)C | – | 0.493 | 1.08 | 0.94 | –
66 | CN(C)c1ccc(C(=C2C=CC(=[N+](C)C)C=C2)c2ccc(N(C)C)cc2)cc1 | – | -0.114 | 0.43 | 0.42 | –
67 | CO[C@@]12[C@@H]3NC3CN1C1=C(C(=O)C(N)=C(C)C1=O)[C@@H]2COC(N)=O (stereo partly specified) | – | 0.484 | 0.24 | 0.33 | –
68 | NC(=O)N/N=C/c1ccc([N+](=O)[O-])o1 | – | 0.00815 | 0.94 | 0.99 | –

A draw from above in order of length of the SMILES, falling:
Row | SMILES | aggregation ratio [1] | signal change (36 h minus 0 h) [2] | SMN1 luciferase ratio [3] | SMN2 luciferase ratio [3] | normalised LDH release [4]
6 | C=C1c2cccc(O)c2C(O)=C2C(=O)[C@]3(O)C(O)=C(C(N)=O)C(=O)[C@@H](N(C)C)[C@@H]3[C@@H](O)[C@H]12 | 0.988 | 0.159 | 0.84 | 0.93 | 0.964
45 | CC(C)(C)c1ccc(C(O)CCCN2CCC(C(O)(c3ccccc3)c3ccccc3)CC2)cc1 (stereo unspecified) | – | 0.603 | 0.93 | 0.84 | –
47 | CCN(CC)CCNc1ccc(CO)c2sc3ccccc3c(=O)c12 | – | 0.0956 | 0.59 | 0.64 | –
68 | NC(=O)N/N=C/c1ccc([N+](=O)[O-])o1 | – | 0.00815 | 0.94 | 0.99 | –
17 | N[C@@H](Cc1ccc(O)c(O)c1)C(=O)O | 0.999 | 0.207 | 0.8 | 0.86 | 0.648
